# At least one peptide structure holds a part that was inferred or is arguable (an end, a ring closure or a residue).
# Experiments:
# Toxoplasma gondii = assay: Visual assay of anti-Toxoplasma activity; type: cell-based; settings: T. gondii
# Eimeria tenella = assay: Visual assay of anti-Eimeria activity in MDBK cells; type: cell-based; settings: Madin Darby bovine kidney (MDBK) cell line, E. tenella
smiles,measurement,setting,value
CCC(=O)CCCCC[C@@H]1NC(=O)[C@H]2CCCCN2C(=O)[C@H]([C@@H](C)CC)NC(=O)[C@H](Cc2cn(OC)c3ccccc23)NC1=O [Ia],miminum inhibitory concentration,Toxoplasma gondii,0.05 to 0.1 ng/mL
same,miminum inhibitory concentration,Eimeria tenella,15 ng/mL
